Experimental findings from paper PMC11087398, “Evaluation of 1,10-phenanthroline-based hydroxamate derivative as dual histone deacetylases/ribonucleotide reductase inhibitor with antitumor activities” (DARU Journal of Pharmaceutical Sciences, 2024) are described below.

As a reminder, the IC50 is the concentration that gives 50% inhibition.

Common to all, as to test: MTT cell viability assay
Assay type in all cases: cell-based
In general terms: Tetrazolium dyes change colour on reduction, which living cells bring about.

Assay [1] has as its system foreskin fibroblast cells. Conditions: 48 h, normal human fibroblast cells, mean ± SD, read-out: Antiproliferative activity IC50, Fibroblast. Here is the method:
(§1) Human cancer cells (SiHa, HepG2, MCF7, Cal27) were obtained from ATCC, while foreskin fibroblast cells were generated at the Manipal School of Life Sciences. Cells were cultured in DMEM with 10% FBS, maintained in an Eppendorf CellXpert® C170 incubator at 37 °C with 5% CO2, and medium was renewed every 48–72 h.
(§2) Cancer cells (1 × 10^5 cells/mL) and fibroblast cells (5 × 10^4 cells/mL) were seeded in 96-well plates. Test compounds, dissolved in DMSO and diluted in DMEM with 10% FBS, were treated for 48 h. MTT (5 mg/mL) was added, and after 4 h, absorbance was measured at 570 and 630 nm using a VARIOSKAN™ 3001 multimode multiplate reader.

The subject of the next assay is Cal27. Conditions: Homo sapiens, CAL-27, 48 h, mean ± SD, read-out: Antiproliferative activity IC50, Cal27. Here is the method: as §1, §2
The test system of another assay is MCF7. The settings on record: Homo sapiens, 48 h, mean ± SD, read-out: Antiproliferative activity IC50, MCF7. Here is the method:
as §1, §2

The test system of a further assay is SiHa. Conditions: Homo sapiens, 48 h, mean ± SD, read-out: Antiproliferative activity IC50, SiHa. Here is the method: as §1, §2
The subject of another assay is HepG2. Conditions: Homo sapiens, 48 h, mean ± SD, read-out: Antiproliferative activity IC50, HepG2. Here is the method:
as §1, §2

Regarding `O=C(CCCCCCC(=O)Nc1ccccc1)NO` [SAHA, suberoylanilide hydroxamic acid], the IC50 in assay [1] is above 100 µM; with Cal27, 9.42 ± 4.14 µM; in the assay on MCF7, above 100 µM; in the assay on SiHa, 25.2 ± 3.69 µM; in the assay with HepG2 it was 61.9 ± 1.47 µM.
